Test results as given in the supplement of paper PMC6078165.
The reference is the same well before dosing, and untreated signal decays as well.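 Fibroblast labels name human fibroblasts: mostly primary ones from tissues such as uterus (C12385, HUF), lung (H6013), bone (Hs27A), adrenal (HADF) and skin (WS1), plus mammary HMF and breast cancer-associated Hs343T. The cancer cells are basal-like or mesenchymal-like triple-negative breast cancer lines. The paper calls a changed response a hit when it shifts by more than 3x the replicate standard deviation. The tissue of the other fibroblasts is not given here.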

Test system: HCC1143
Test: relative JC-1 red fluorescence (viability) vs pre-drug, coculture with fibroblast (fraction); higher = more viable cancer cells
Method: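 JC-1 labelled TNBC cells cocultured 1:1 (1,500 cells each) with CellTrace Violet stained primary or stromal fibroblasts in 384-well plates in FluoroBrite medium, treated with one of 42 anticancer drugs at 0.1, 1, 10 or 100 uM. JC-1 red fluorescence (mitochondrial integrity in cancer cells only) was read by plate reader every 8 h for 72 h. Values are normalised to each well's pre-drug value. The stock of one drug was tenfold lower, so its dose labels may be too high.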

CC[C@]1(O)C[C@H]2CN(CCc3c([nH]c4ccccc34)[C@@](C(=O)OC)(c3cc4c(cc3OC)N(C=O)[C@H]3[C@@](O)(C(=O)OC)[C@H](OC(C)=O)[C@]5(CC)C=CCN6CC[C@]43[C@@H]65)C2)C1 [Vincristine]
relative JC-1 red fluorescence
Details	8 h	16 h	24 h	32 h	40 h	48 h	56 h	64 h	72 h
0.1 µM, coculture fibroblast: C12385	0.801	0.741	0.713	0.667	0.637	0.644	0.638	0.631	0.648
0.1 µM, coculture fibroblast: H6013	0.822	0.793	0.771	0.77	0.751	0.769	0.764	0.775	0.739
0.1 µM, coculture fibroblast: H6019	0.809	0.758	0.76301	0.722	0.708	0.726	0.707	0.706	0.698
0.1 µM, coculture fibroblast: H6076	0.807	0.795	0.755	0.7278	0.697	0.691	0.671	0.655	0.679
0.1 µM, coculture fibroblast: H6231	0.784	0.763	0.7	0.621	0.609	0.582	0.539	0.515	0.509
0.1 µM, coculture fibroblast: HADF	0.795	0.763	0.736	0.734	0.668	0.659	0.635	0.63	0.598
0.1 µM, coculture fibroblast: HCFa	0.804	0.736	0.707	0.699	0.612	0.595	0.557	0.532	0.505
0.1 µM, coculture fibroblast: HCPF	0.792	0.841	0.771	0.67	0.686	0.657	0.624	0.588	0.579
0.1 µM, coculture fibroblast: HHSteC	0.862	0.82	0.797	0.766	0.698	0.684	0.65	0.629	0.584
0.1 µM, coculture fibroblast: HMF	0.8	0.831	0.74099	0.6662	0.6454	0.614	0.581	0.555	0.542
0.1 µM, coculture fibroblast: HPFa	0.89	0.795	0.761	0.6734	0.605	0.594	0.569	0.554	0.544
0.1 µM, coculture fibroblast: HUF	0.8528	0.7819	0.724	0.65883	0.6029	0.59055	0.556	0.541	0.523
0.1 µM, coculture fibroblast: Hs5	0.854	0.838	0.7937	0.8014	0.722	0.7019	0.6826	0.666	0.68317
0.1 µM, coculture fibroblast: Hs27A	0.716	0.661	0.636	0.669	0.55	0.548	0.527	0.5212	0.5281
0.1 µM, coculture fibroblast: Hs343T	0.825	0.835	0.782	0.716	0.701	0.672	0.634	0.621	0.599
0.1 µM, coculture fibroblast: WS1	0.802	0.736	0.692	0.618	0.574	0.558	0.526	0.527	0.528
1 µM, coculture fibroblast: C12385	0.845	0.765	0.6874	0.63817	0.571	0.536	0.5	0.469	0.449
1 µM, coculture fibroblast: H6013	0.7935	0.723	0.691	0.689	0.615	0.601	0.574	0.562	0.566
1 µM, coculture fibroblast: H6019	0.83	0.774	0.741	0.688	0.664	0.657	0.632	0.614	0.597
1 µM, coculture fibroblast: H6076	0.813	0.809	0.751	0.717	0.6712	0.668	0.655	0.641	0.657
1 µM, coculture fibroblast: H6231	0.8142	0.815	0.706	0.579	0.606	0.572	0.525	0.494	0.474
1 µM, coculture fibroblast: HADF	0.745	0.6706	0.6261	0.615	0.527	0.497	0.464	0.447	0.437
1 µM, coculture fibroblast: HCFa	0.772	0.68	0.616	0.587	0.489	0.448	0.411	0.38	0.387
1 µM, coculture fibroblast: HCPF	0.829	0.843	0.781	0.679	0.698	0.664	0.631	0.605	0.601
1 µM, coculture fibroblast: HHSteC	0.81	0.735	0.691	0.653	0.583	0.55	0.508	0.484	0.453
1 µM, coculture fibroblast: HMF	0.795	0.839	0.7508	0.656	0.662	0.629	0.586	0.56	0.539
1 µM, coculture fibroblast: HPFa	0.9412	0.8499	0.824	0.741	0.663	0.632	0.5732	0.551	0.5308
1 µM, coculture fibroblast: HUF	0.892	0.8216	0.756	0.68	0.636	0.607	0.567	0.536	0.512
1 µM, coculture fibroblast: Hs5	0.84	0.868	0.795	0.753	0.6999	0.6701	0.6427	0.61709	0.6089
1 µM, coculture fibroblast: Hs27A	0.748	0.677	0.628	0.659	0.5468	0.533	0.501	0.486	0.48
1 µM, coculture fibroblast: Hs343T	0.80759	0.838	0.743	0.6576	0.645	0.606	0.561	0.546	0.523
1 µM, coculture fibroblast: WS1	0.851	0.77	0.7136	0.642	0.593	0.553	0.52	0.493	0.476
